Measurements: patent US20240199756A1
Substitutions are numbered along the chain they refer to. Results are given in words; binding and its absence hold for the method and conditions named. Some entries that bind do so weakly or less than the wild type.

Protein sequences, listed by entry. Tags and fused reporters are not part of them. Residues count along the entry.
UniProt O76036, residues 22-254: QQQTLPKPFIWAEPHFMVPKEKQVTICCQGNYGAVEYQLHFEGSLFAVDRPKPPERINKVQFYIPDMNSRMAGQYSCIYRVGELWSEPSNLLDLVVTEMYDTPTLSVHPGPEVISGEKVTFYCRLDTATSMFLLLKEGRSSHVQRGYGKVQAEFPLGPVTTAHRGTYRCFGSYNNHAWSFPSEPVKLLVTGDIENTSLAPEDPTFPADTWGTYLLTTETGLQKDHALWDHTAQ

B1: mouse anti-NKp46 monoclonal antibody 09 (antibody, V domains shown)
VH: EVQLQQSGPELVKPGTSVKISCKTSGYTFTEYSMHWVKQSHGKSLEWFGGISPNSGGTSYNQKFKGKATLTVDKSSSTAYMELRSLTSEDSAVYYCARRDFHSSFDYWGQGTTLTVSS
VL: DIVMTQSPATLSVTPGDRVSLSCRASQSISDYLHWFQQKSHESPRLLIKYASQSISGIPSRFSGSGSGSDFTLSINSVEPEDVGVYYCQNGHSFPLTFGPGTKLELK
B2: mouse anti-NKp46 monoclonal antibody 12 (antibody, V domains shown)
VH: B1 VH
VL: B1 VL with M4L, D17N, R18S

Experiments:
[1] = target: NKp46 as used in the BIAcore assay of Example 1 (human) (UniProt O76036); assay: BIAcore, mAb9 as the injected analyte
[2] = target: NKp46 as used in the BIAcore assay of Example 1 (human) (UniProt O76036); assay: BIAcore, mAb12 as the injected analyte

Binder	binding [1]	binding [2]
B1	binds	
B2		binds
